The series deals with broiler chickens (breast tissue genomic DNA). In words: Random forest classification of CpG methylation (reduced bisulphite sequencing), breast tissue of antibiotic treated broilers vs controls. In kind it is in vivo, chicken (Gallus gallus).
The mark [1] stands for this setting: control vs treatment with no withdrawal (Tylosin 2 kg/MT day 32-42, Amoxicillin 1.86 kg/MT day 37-42).
The mark [2] stands for this setting: control vs treatment with withdrawal (Tylosin 2 kg/MT, Amoxicillin 1.86 kg/MT feed day 32-37).
[3] abbreviates: control vs AGP dose (50 g/MT feed day 1-42).
The mark [4] stands for this setting: control vs therapeutic dose (200 g/MT feed day 23-28).

In the case of `CC1(C)S[C@@H]2[C@H](NC(=O)[C@H](N)c3ccc(O)cc3)C(=O)N2[C@H]1C(=O)O` [Amoxicillin], under setting [1], the “Average Classification Error” value worked out at 0.165 and the “Best Classification Error” value is listed as 0.000. Besides, under setting [2], the “Average Classification Error” value came to 0.161 and the “Best Classification Error” value worked out at 0.000.

Consider `CC[C@H]1OC(=O)C[C@@H](O)[C@H](C)[C@@H](O[C@@H]2O[C@H](C)[C@@H](O[C@H]3C[C@@](C)(O)[C@@H](O)[C@H](C)O3)[C@H](N(C)C)[C@H]2O)[C@@H](CC=O)C[C@@H](C)C(=O)/C=C/C(C)=C/[C@@H]1CO[C@@H]1O[C@H](C)[C@@H](O)[C@@H](OC)[C@H]1OC` [Tylosin], for which the “Average Classification Error” value was 0.189 under setting [1] and 0.169 under setting [2]. Besides, the “Best Classification Error” value by setting is: under setting [1], 0.071; under setting [2], 0.000.

Bacitracin Methylene Disalicylate [BMD]: under setting [3], the “Average Classification Error” value was 0.314 and the “Best Classification Error” value is reported as 0.111. Under setting [4], the “Average Classification Error” value turned out to be 0.275 and the “Best Classification Error” value was found to be 0.056.

Values taken from patent US20260015662A1, “DETECTING ANTIBIOTIC AND/OR CHEMICAL USE IN ANIMALS USING EPIGENETIC MEANS” (Evonik Operations GmbH, priority 2022, published 2026).
